Experimental findings from publication PMC8402707 are described below.

The target of the experiment is poliovirus VP0 C-terminally fused to EGFP (poliovirus type I Mahoney) (UniProt P03300). Description: co-IP.

These are yes or no findings as the source states them, for the method shown. Binding seen in cells or lysates may run through a third protein.

Take p62/SQSTM1 (from UniProt Q13501 1-440): the binding result was “no binding”.
